Test results taken from PubChem BioAssay AID256 (DTP/NCI, 2004).
The list is a part of this screen's results and no random one: it is rich in T/C values a quarter to a half above the control, in often repeated tests (any T/C) and in doses without a T/C. Other doses and runs of a compound stand elsewhere. T/C: endpoint of the treated group in % of that of the vehicle group. Some doses have a count of surviving animals in place of a T/C: the source files T/C as zero there, which appears to mark a toxic dose or a test without result, not a measured value. Some doses without a T/C left all or most animals alive at the check, yet need not have been tolerated: survival well below the control is almost never listed, so the zero probably covers shortened survival too. Survivors were counted at the toxicity check, usually on the fifth day, unless a day is given; later deaths do not show. Schedules are NCI's codes, taken here to give the interval after Q, in days (D) or hours (H), and the number of doses after X. Some doses were run more than once; the results are listed from low to high. Some schedule codes hold Z or #, which are not explained here. For survival time, the PubChem record calls one and a half times the control and up active, and a quarter to a half above the control has no call in these data; cut-offs in other NCI protocols can differ. Some T/C values are followed by the survivors on the day toxicity was checked, most often the fifth; where none is given, no animal had died by that day.

System: CD2F1 mice, L1210 leukemia ip, survival T/C
Assay: NCI In Vivo Anticancer Drug Screen. Data for tumor model L1210 Leukemia (intraperitoneal) in CD2F1 (CDF1) mice
Details: higher T/C = longer survival
How it was run: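 Implant tumor; dose compound or vehicle; measure endpoint in both groups; report treated divided by control.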

[1] = T/C endpoint: mean survival time, dose: 200.0 mg/kg/injection, schedule: Q01DX009 (ip), vehicle: saline with Tween-80
[2] = T/C endpoint: mean survival time, dose: 400.0 mg/kg/injection, schedule: Q04DX003 (ip), vehicle: saline with Tween-80
[3] = T/C endpoint: mean survival time, dose: 200.0 mg/kg/injection, schedule: Q04DX003 (ip), vehicle: saline with Tween-80
[4] = T/C endpoint: mean survival time, dose: 200.0 mg/kg/injection, schedule: Q01DX009 (ip), vehicle: Klucel (hydroxypropylcellulose) (HPC)
[5] = T/C endpoint: mean survival time, dose: 300.0 mg/kg/injection, schedule: Q01DX001 (ip), vehicle: saline
[6] = T/C endpoint: mean survival time, dose: 200.0 mg/kg/injection, schedule: Q01DX005 (ip), vehicle: other
[7] = T/C endpoint: mean survival time, dose: 200.0 mg/kg/injection, schedule: Q04DX003 (ip), vehicle: saline

For CC(=O)Nc1cc2c(ncn2C2OC(CO)C(O)C2O)c(Br)n1 (stereo not drawn), the survivor count (T/C endpoint: mean survival time, dose: 100.0 mg/kg/injection, schedule: Q01DX005 (ip), vehicle: water) was 6 of 6.

In the case of N#CC(NCc1ccccc1)c1ccc2c(c1)OCO2 (stereo not drawn), the survivor count [1] is reported as 2 of 6 and the survivor count [2] is reported as 2 of 6.

For CN1CCN=C1c1ccc(NC(=O)Nc2ccc(NC(=O)Nc3ccc(C4=NCCN4C)cc3)cc2)cc1, the survivor count (T/C endpoint: mean survival time, dose: 12.5 mg/kg/injection, schedule: Q01DX Z (ip), vehicle: water) was 2 of 6, the survivor count (T/C endpoint: mean survival time, dose: 15.0 mg/kg/injection, schedule: Q01DX Z (ip), vehicle: water) was 0 of 6 and the survivor count (T/C endpoint: mean survival time, dose: 20.0 mg/kg/injection, schedule: Q01DX Z (ip), vehicle: water) was 0 of 6. For the same compound, the survivor count (T/C endpoint: mean survival time, dose: 30.0 mg/kg/injection, schedule: Q01DX Z (ip), vehicle: water) was 0 of 6.

In the case of CC(C)(CCl)C(=O)O, the survivor count [2] is reported as 3 of 6.

CC1(C)CCC23CCC4(C)C(CCC5C6(C)CCC(O)C(C)(C)C6CCC54C)C2C1OC3=O (stereo not drawn) was tested, and the survivor count (T/C endpoint: mean survival time, dose: 50.0 mg/kg/injection, schedule: Q04DX002 (ip), vehicle: saline with Tween-80) was 3 of 3 and the survivor count (T/C endpoint: mean survival time, dose: 100.0 mg/kg/injection, schedule: Q04DX002 (ip), vehicle: saline with Tween-80) was 3 of 3.

In the case of Cc1c(N=Nc2cc[n+]([O-])cc2)ccc(N(C)C)c1C, the survivor count [2] is reported as 0 of 6.

In the case of CC[C@@H](O)C[C@H]1CCC[C@@]2(C[C@@H]3OC(=O)/C=C/[C@@](C)(O)[C@@H](O)[C@H](C)[C@@H](O)[C@H](OC4CCC(N(C)C)C(C)O4)[C@@H](O)[C@](C)(O)CCCCC/C=C/[C@@H]4CC(C)(C)O[C@@]4(O)C[C@H](O2)[C@H]3C)O1 (stereo partly drawn), the survivor count (T/C endpoint: mean survival time, dose: 0.5 mg/kg/injection, schedule: Q01DX009 (ip), vehicle: saline) is reported as 2 of 6 and the survivor count (T/C endpoint: mean survival time, dose: 1.0 mg/kg/injection, schedule: Q01DX009 (ip), vehicle: saline) is reported as 0 of 6.

For Cc1ccc(C(=O)C=C(C(F)(F)F)C(F)(F)F)cc1, the survivor count (T/C endpoint: mean survival time, dose: 100.0 mg/kg/injection, schedule: Q04DX003 (ip), vehicle: saline with Tween-80) was 2 of 6, the survivor count [3] was 2 of 6 and the survivor count [2] was 1 of 6.

For C/C(=N/NC(=O)c1ccccc1)c1ccc(Cl)cc1Cl, the survivor count (T/C endpoint: mean survival time, dose: 100.0 mg/kg/injection, schedule: Q01DX009 (ip), vehicle: Klucel (hydroxypropylcellulose) (HPC)) was 1 of 6 and the survivor count [4] was 0 of 6.

With CCCCCCC(C)c1cc(C)c(O)c(CN(C)C)c1 (stereo not drawn) the survivor count (T/C endpoint: mean survival time, dose: 400.0 mg/kg/injection, schedule: Q04DX003 (ip), vehicle: saline) was 0 of 6.

CC(C)C(O)C(C)[N+](=O)[O-] (stereo not drawn) was tested, and the survivor count (T/C endpoint: mean survival time, dose: 100.0 mg/kg/injection, schedule: Q01DX001 (ip), vehicle: saline with Tween-80) was 0 of 3, the survivor count (T/C endpoint: mean survival time, dose: 200.0 mg/kg/injection, schedule: Q01DX001 (ip), vehicle: saline with Tween-80) was 0 of 3 and the survivor count (T/C endpoint: mean survival time, dose: 400.0 mg/kg/injection, schedule: Q01DX001 (ip), vehicle: saline with Tween-80) was 0 of 3.

For CC[C@@]1(O)C(=O)OCc2c1cc1n(c2=O)Cc2cc3cc(OC)ccc3nc2-1, the T/C (T/C endpoint: mean survival time, dose: 1.56 mg/kg/injection, schedule: Q04DX003 (ip), vehicle: water) was 143 % of control, the survivor count (T/C endpoint: mean survival time, dose: 6.25 mg/kg/injection, schedule: Q04DX003 (ip), vehicle: water) was 6 of 6 and the survivor count (T/C endpoint: mean survival time, dose: 12.5 mg/kg/injection, schedule: Q04DX003 (ip), vehicle: water) was 4 of 6 and 6 of 6. The survivor count (T/C endpoint: mean survival time, dose: 25.0 mg/kg/injection, schedule: Q04DX003 (ip), vehicle: other) was 5 of 6, the survivor count (T/C endpoint: mean survival time, dose: 25.0 mg/kg/injection, schedule: Q04DX003 (ip), vehicle: water) was 3 of 6 and the survivor count (T/C endpoint: mean survival time, dose: 50.0 mg/kg/injection, schedule: Q04DX003 (ip), vehicle: other) was 1 of 6. The survivor count (T/C endpoint: mean survival time, dose: 100.0 mg/kg/injection, schedule: Q04DX003 (ip), vehicle: other) was 0 of 6 and the survivor count (T/C endpoint: mean survival time, dose: 200.0 mg/kg/injection, schedule: Q04DX003 (ip), vehicle: other) was 0 of 6.

With CC1(C(=O)O)CCCC2(C)c3cc(O)ccc3CCC12 (stereo not drawn) the survivor count [4] was 1 of 3.

In the case of NC(N)=N/N=C/c1ccc(Cl)cc1, the survivor count (T/C endpoint: mean survival time, dose: 80.0 mg/kg/injection, schedule: Q01DX009 (ip), vehicle: Klucel (hydroxypropylcellulose) (HPC)) is reported as 2 of 6.

CC(S)c1ccccc1 (stereo not drawn) was tested, and the survivor count [2] was 3 of 6.

With Clc1cc(Cl)c2nc[nH]c2c1 the survivor count [1] was 0 of 3.

For Cc1cc(=O)n2c3c(c4c(cc13)c(CN(C)C)cc(=O)n4C)OC2, the T/C (T/C endpoint: median survival time, dose: 50.0 mg/kg/injection, schedule: Q01DX009 (ip), vehicle: saline with Tween-80) was 128 [5 of 6 alive] and 147 % of control and the survivor count (T/C endpoint: median survival time, dose: 100.0 mg/kg/injection, schedule: Q01DX009 (ip), vehicle: saline with Tween-80) was 3 of 6.

For COC12C(COC(N)=O)C3=C(C(=O)C(C)=C(N4CCN(C)CC4)C3=O)N1CC1NC12 (stereo not drawn), the T/C (T/C endpoint: median survival time, dose: 0.75 mg/kg/injection, schedule: Q01DX001 (ip), vehicle: water) was 135 % of control and the survivor count (T/C endpoint: median survival time, dose: 12.0 mg/kg/injection, schedule: Q01DX001 (ip), vehicle: water) was 1 of 6.

For C[CH2][Pb]([CH2]C)([CH2]C)[O]S(=O)(=O)c1ccc(C)cc1, the survivor count (T/C endpoint: mean survival time, dose: 6.25 mg/kg/injection, schedule: Q01DX009 (ip), vehicle: saline with Tween-80) was 3 of 6, the survivor count (T/C endpoint: mean survival time, dose: 12.5 mg/kg/injection, schedule: Q01DX009 (ip), vehicle: saline with Tween-80) was 1 of 6 and the survivor count (T/C endpoint: mean survival time, dose: 25.0 mg/kg/injection, schedule: Q01DX009 (ip), vehicle: saline with Tween-80) was 0 of 6.

With CCC1c2cc(Oc3c(O)c(OC)cc4c3C(CC)N(C)CC4)c(OC)cc2CCN1C (stereo not drawn) the survivor count (T/C endpoint: mean survival time, dose: 75.0 mg/kg/injection, schedule: Q01DX001 (ip), vehicle: saline) was 0 of 6, the survivor count (T/C endpoint: mean survival time, dose: 150.0 mg/kg/injection, schedule: Q01DX001 (ip), vehicle: saline) was 0 of 6 and the survivor count [5] was 0 of 6.

With CC12CCC(CC1CO)C2 (stereo not drawn) the survivor count [2] was 1 of 6.

In the case of O=NN(c1ccccc1)c1ccc([N+](=O)[O-])cc1, the survivor count (T/C endpoint: mean survival time, dose: 400.0 mg/kg/injection, schedule: Q01DX009 (ip), vehicle: saline with Tween-80) is reported as 6 of 6.

In the case of CC(C)(C)N1CC1, the survivor count (T/C endpoint: mean survival time, dose: 200.0 mg/kg/injection, schedule: Q04DX002 (ip), vehicle: saline with Tween-80) is reported as 3 of 3.

For C=CCN(CC=C)N=Nc1ccc(C(N)=O)cc1, the survivor count (T/C endpoint: mean survival time, dose: 266.0 mg/kg/injection, schedule: Q01DX009 (ip), vehicle: Klucel (hydroxypropylcellulose) (HPC)) was 2 of 6 and the survivor count (T/C endpoint: mean survival time, dose: 400.0 mg/kg/injection, schedule: Q01DX009 (ip), vehicle: Klucel (hydroxypropylcellulose) (HPC)) was 1 of 6.

With OC(c1ccccc1)C1CCN(Cc2ccccc2)CC1 (stereo not drawn) the survivor count [3] was 2 of 6 and the survivor count [2] was 0 of 6.

In the case of O=NN(CCCl)C(=O)NC1[C@H](O)CCC[C@@H]1O (stereo partly drawn), the T/C (T/C endpoint: median survival time, dose: 0.32 mg/kg/injection, schedule: Q01DX009 (ip), vehicle: saline) is reported as 126 % of control and the T/C (T/C endpoint: median survival time, dose: 0.62 mg/kg/injection, schedule: Q01DX009 (ip), vehicle: saline) is reported as 139 % of control.

With O=c1[nH]c(=O)n([C@H]2CCCO2)cc1F the T/C (T/C endpoint: mean survival time, dose: 100.0 mg/kg/injection, schedule: Q01DX009 (ip), vehicle: saline with Tween-80) was 137 % of control, the T/C [6] was 138 % of control and the T/C [1] was 132 % of control. For the same compound, the T/C [7] was 129 % of control, the T/C (T/C endpoint: mean survival time, dose: 450.0 mg/kg/injection, schedule: Q04DX003 (iv), vehicle: saline with Tween-80) was 131 % of control and the T/C (T/C endpoint: mean survival time, dose: 900.0 mg/kg/injection, schedule: Q04DX003 (ip), vehicle: saline with Tween-80) was 131 % of control. The T/C (T/C endpoint: mean survival time, dose: 900.0 mg/kg/injection, schedule: Q04DX003 (iv), vehicle: saline with Tween-80) was 125 % of control.

In the case of [CH3][Sn]1([CH3])[O]C2C(CO)OC(n3ccc(=O)[nH]c3=O)C2[O]1 (stereo not drawn), the survivor count (T/C endpoint: mean survival time, dose: 100.0 mg/kg/injection, schedule: Q01DX005 (ip), vehicle: other) is reported as 0 of 6 and the survivor count [6] is reported as 0 of 6.

With O=C(Nc1ccc(O)cc1)c1c(O)[nH]c(=S)[nH]c1=O the survivor count (T/C endpoint: median survival time, dose: 200.0 mg/kg/injection, schedule: Q01DX009 (ip), vehicle: saline with Tween-80) was 3 of 6.

In the case of CC(=O)C(Cl)C(C)=O.CC(=O)C(Cl)C(C)=O.CO.CO.[Ni], the survivor count (T/C endpoint: mean survival time, dose: 100.0 mg/kg/injection, schedule: Q04DX003 (ip), vehicle: saline) is reported as 2 of 6 and the survivor count [7] is reported as 0 of 6.

With OCCC(c1ccccc1)C1CCCCN1 (stereo not drawn) the survivor count [5] was 1 of 6.

For C1=CSC(=C2SC=CS2)S1, the survivor count [2] was 0 of 6.

In the case of N#CSCN1C(=O)C2CC=CCC2C1=O (stereo not drawn), the survivor count (T/C endpoint: mean survival time, dose: 25.0 mg/kg/injection, schedule: Q04DX003 (ip), vehicle: saline with Tween-80) is reported as 3 of 6.
